# Assay results reported in PubChem BioAssay AID2685 (National Center for Advancing Translational Sciences (NCATS), 2010).
# Some of the results follow. Further columns of the screen follow, without active or inactive calls. Compounds called inactive in the main read-out are mostly missing here. The note in brackets gives the kind of curve behind each potency; many fits are weak.
# Test: qHTS Assay for Lipid Storage Modulators in Drosophila S3 Cells;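 on cell number change: cells counted by Cell Tracker Red CMTPX staining in the red channel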
# Details: BODIPY lipid droplet fluorescence, 18-24 h; for cell number change: measured here: cell count max response, cells fed with added oleic acid
# Outline: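 Drosophila S3 cells got compounds at several concentrations plus oleic acid (400 uM solution). Laser-scanning cytometry with 488 nm excitation read lipid droplets at 500-530 nm and cells at 575-640 nm. Percent activity was relative to 20 uM Triacsin C.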
# [1] = measured here: lipid fluorescence (Fed channel) AC50, cells fed with added oleic acid
# [2] = measured here: cell number channel AC50, cells fed with added oleic acid
smiles,measurement,setting,value
Cc1cc(C(=O)N2CCCC(N3CCN(c4cccc(Cl)c4)CC3)C2)no1 (configuration not stated),cell number change,,49.9%
N#CC(C(=O)NC1CCCCC1)c1nc2ccccc2nc1N1CCOCC1 (configuration not stated),cell number change,,20.7%
same,AC50,[1],"6.51 µM [rising, single point]"
Cc1ccc(NC(=O)COc2coc(CN3CCc4ccccc43)cc2=O)cc1Cl,cell number change,,10.8%
O=C(Cn1ncc2c1-c1ccccc1OC2)N1CCN(Cc2ccc3c(c2)OCO3)CC1,cell number change,,6.67%
same,AC50,[1],"11.6 µM [rising, partial curve]"
Cc1cc(C)nc(NS(=O)(=O)c2ccc(NC(=O)CCC3COc4ccccc4O3)cc2)n1 (configuration not stated),AC50,[2],"0.651 µM [falling, single point]"
same,AC50,[1],"6.51 µM [falling, single point]"
c1ccc(N2CCN(c3nc(NCc4ccco4)c4ccccc4n3)CC2)cc1,cell number change,,-61.6%
same,AC50,[2],"0.146 µM [rising, full curve]"
same,AC50,[1],"0.164 µM [rising, full curve, poor fit]"
COc1ccc2c(c1)c(CC(=O)Nc1ccc(C(C)=O)cc1)c(C)n2C(=O)c1ccc(Cl)cc1,cell number change,,-33.1%
same,AC50,[2],"29.1 µM [falling, single point]"
same,AC50,[1],"20.6 µM [falling, single point]"
COc1ccc(CN(C)CC(=O)Nc2cccc3ccccc23)cc1F,cell number change,,14.6%
Cc1cc(C)c(C#N)c(Oc2ccccc2Br)n1,cell number change,,25.5%
same,AC50,[1],"3.26 µM [rising, single point]"
COC(=O)C1(C)CCc2cc(OC)ccc2C1=O (configuration not stated),cell number change,,-83.3%
same,AC50,[2],"0.92 µM [falling, full curve]"
same,AC50,[1],"25.9 µM [rising, single point]"
CCCc1cc(=O)[nH]c(SC(C)C(=O)Nc2ccc3c(c2)OCCO3)n1 (configuration not stated),cell number change,,-15.7%
same,AC50,[1],"18.4 µM [rising, partial curve]"
O=C(NCc1ccco1)C1CCC(CNS(=O)(=O)c2cccc3cccnc23)CC1 (configuration not stated),AC50,[2],"0.206 µM [rising, full curve, poor fit]"
same,AC50,[1],"29.1 µM [rising, single point]"
CCCCN(C(=O)c1cc2c(s1)CCC2)c1c(N)n(CC(C)C)c(=O)[nH]c1=O,cell number change,,21.6%
CCOC(=O)c1cnn(-c2ccc(Cl)cc2)c1C1CCN(C(=O)OC(C)(C)C)CC1,cell number change,,4.49%
same,AC50,[2],"1.3 µM [rising, partial curve]"
same,AC50,[1],"29.1 µM [rising, partial curve]"
COc1ccc(S(=O)(=O)N2CCN(Cc3cccc(OC)c3)CC2)cc1,cell number change,,1.57%
same,AC50,[1],"29.1 µM [rising, single point]"
O=c1oc2ccccc2cc1-c1csc(Nc2ccc(O)cc2)n1,cell number change,,-45.8%
CCOc1ccc(C(=O)CCC(=O)N(CC)CC(=O)Nc2c(F)cccc2F)cc1,cell number change,,50%
same,AC50,[2],"0.206 µM [rising, full curve]"
same,AC50,[1],"29.1 µM [falling, single point]"
CCOc1ccc(CN(C)CC(=O)Nc2ccccc2C(=O)NC2CC2)cc1,cell number change,,-25%
same,AC50,[2],"0.00411 µM [falling, full curve, poor fit]"
CCCn1c(N)c(C(=O)CSc2nc(C)cs2)c(=O)n(C)c1=O,cell number change,,-15.6%
same,AC50,[1],"16.4 µM [falling, single point]"
NC(=O)C1CCN(c2oc(/C=C/c3ccc(F)cc3)nc2S(=O)(=O)c2ccccc2)CC1,cell number change,,-7.41%
same,AC50,[2],"1.64 µM [falling, partial curve]"
CC(C)CC(Nc1ncnc2scc(-c3ccccc3)c12)C(=O)O (configuration not stated),cell number change,,19.2%
O=C(COC(=O)C1CCCCC1)Nc1ccc([N+](=O)[O-])cc1,cell number change,,-16.8%
same,AC50,[2],"0.82 µM [falling, full curve]"
same,AC50,[1],"0.517 µM [falling, full curve]"
CCOC(=O)Cn1nc(-c2ccc(Cl)cc2)ccc1=O,cell number change,,19.5%
CC(=O)c1c(C)[nH]c(-c2ccccc2)c1C,cell number change,,36.4%
same,AC50,[2],"29.1 µM [rising, single point]"
Cc1ccc(C(=O)NCC(=O)NC2CCC(C)CC2)s1 (configuration not stated),cell number change,,-0.735%
same,AC50,[1],"20.6 µM [rising, partial curve]"
S=C(NCC1CCCO1)N1CCN(c2nc(-c3ccc(Cl)cc3)cs2)CC1 (configuration not stated),cell number change,,-14.7%
same,AC50,[1],"13 µM [falling, partial curve, poor fit]"
COc1ccc(OCc2cc(C(=O)NC3CCOCC3)no2)c2ccccc12,cell number change,,-5.66%
same,AC50,[1],"20.6 µM [rising, single point]"
CCc1cccc(C)c1NC(=O)C1CCCO1 (configuration not stated),cell number change,,2.61%
same,AC50,[1],"0.517 µM [rising, full curve]"
Nc1c(C(=O)NCc2cccnc2)sc(=S)n1-c1ccccc1,cell number change,,-5.78%
same,AC50,[1],"2.06 µM [rising, single point]"

# Shown tab-delimited: entries from further up.
smiles	measurement	setting	value
COC(=O)C1(C)CCc2cc(OC)ccc2C1=O (configuration not stated)	AC50	[2]	0.92 µM [falling, full curve]
NC(=O)C1CCN(c2oc(/C=C/c3ccc(F)cc3)nc2S(=O)(=O)c2ccccc2)CC1	AC50	[2]	1.64 µM [falling, partial curve]
COc1ccc(OCc2cc(C(=O)NC3CCOCC3)no2)c2ccccc12	cell number change		-5.66%
